Assay results as given in patent US20220220204A1.
Numbering of substitutions follows the chain as printed. Results are given in words; binding and its absence hold for the method and conditions named. Some entries that bind do so weakly or less than the wild type.

Chains of the proteins cited; added tags and fusions are not shown. Residues count along the entry.
UniProt Q9NZQ7, residues 19-290: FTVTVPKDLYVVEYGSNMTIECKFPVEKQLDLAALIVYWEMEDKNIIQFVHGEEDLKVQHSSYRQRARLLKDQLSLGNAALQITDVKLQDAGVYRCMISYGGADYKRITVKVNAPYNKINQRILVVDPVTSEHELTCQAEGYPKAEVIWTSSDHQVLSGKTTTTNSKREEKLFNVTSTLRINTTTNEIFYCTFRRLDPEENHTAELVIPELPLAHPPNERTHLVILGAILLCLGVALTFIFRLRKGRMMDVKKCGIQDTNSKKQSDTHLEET

B1: PDL1HCv5 (antibody, human IgG1, kappa, N297A, V domains shown)
VH: EVQLVQSGAEVKKPGASVKVSCKASGYIFTGYGITWVRQAPGQGLEWMGEIFPRRVQTYYSEKFKGRVTMTADTSTSTAYMELRSLRSDDTAVYYCARDYDPYFALDYWGQGTTVTVSS
VL: DIQMTQSPSSLSASVGDRVTITCRASQDVSTAVDWYQQKPGKAPKLLIYSASYRYTGVPDRFSGSGSGTDFTFTISSLQPEDIATYYCQQHYSIPFTFGQGTKLEIKR
B2: PDL1HCv1 (antibody, human IgG1, kappa, N297A, V domains shown)
VH: B1 VH with A72T
VL: B1 VL

How the values were obtained:
[1] = target: PD-L1 expressed on CHO-K1 cells (UniProt Q9NZQ7); experiment: FACS on CHO-K1 cells expressing PD-L1, control (FIG. 5)
[2] = target: PD-L1 expressed on CHO-K1 cells (UniProt Q9NZQ7); experiment: FACS on CHO-K1 cells expressing PD-L1, control (FIG. 9)

Row | Binder | binding [1] | binding [2]
1 | B1 | binds | –
2 | B2 | binds | binds
